# Earlier results, collected in patent US8609649B2, “Compositions and methods for the diagnosis, treatment, and prevention of amyotrophic lateral sclerosis and related neurological diseases” (Brandeis University, priority 2007, dated 2013).
# For at least one compound, name, drawing or mass did not settle the structure.
# System: AGE formation
# Settings: in vitro; cited from earlier work
row,SMILES,AGE formation
1,CCc1ccc(CCOc2ccc(CC3SC(=O)NC3=O)cc2)nc1 (stereo not drawn) [pioglitazone],prevent AGE formation
2,CCOc1nc2cccc(C(=O)O)c2n1Cc1ccc(-c2ccccc2-c2nnn[nH]2)cc1 [candesartan],effective in vitro at decreasing AGE formation
3,CCCc1nc(C(C)(C)O)c(C(=O)O)n1Cc1ccc(-c2ccccc2-c2nnn[nH]2)cc1 [olmesartan],effective in vitro at decreasing AGE formation
